Earlier results in US20190328719A1, “METHODS OF TREATING DEVELOPMENTAL DISORDERS AND/OR SEIZURE DISORDERS WITH FLUPIRTINE” (Ovid Therapeutics Inc., priority 2016, published 2019).
Structures can show the parent of a compound that is named as a salt. The name of at least one read-out is uncertain.

Details: rectal, flupirtine maleate 150 mg; cited from earlier work

Compound: CCOC(=O)Nc1ccc(NCc2ccc(F)cc2)nc1N [flupirtine maleate]
- time of Cmax post dose: 5.7 h
